Laboratory results reported in PMC4604683.
These are yes or no findings as the source states them, for the method shown. Binding seen in cells or lysates may run through a third protein. Some binding calls cover weakened binding; strength is not graded here.

Protein sequences, listed by entry. Tags and fused reporters are not part of them. Residues count along the entry.
UniProt O14786, residues 22-923: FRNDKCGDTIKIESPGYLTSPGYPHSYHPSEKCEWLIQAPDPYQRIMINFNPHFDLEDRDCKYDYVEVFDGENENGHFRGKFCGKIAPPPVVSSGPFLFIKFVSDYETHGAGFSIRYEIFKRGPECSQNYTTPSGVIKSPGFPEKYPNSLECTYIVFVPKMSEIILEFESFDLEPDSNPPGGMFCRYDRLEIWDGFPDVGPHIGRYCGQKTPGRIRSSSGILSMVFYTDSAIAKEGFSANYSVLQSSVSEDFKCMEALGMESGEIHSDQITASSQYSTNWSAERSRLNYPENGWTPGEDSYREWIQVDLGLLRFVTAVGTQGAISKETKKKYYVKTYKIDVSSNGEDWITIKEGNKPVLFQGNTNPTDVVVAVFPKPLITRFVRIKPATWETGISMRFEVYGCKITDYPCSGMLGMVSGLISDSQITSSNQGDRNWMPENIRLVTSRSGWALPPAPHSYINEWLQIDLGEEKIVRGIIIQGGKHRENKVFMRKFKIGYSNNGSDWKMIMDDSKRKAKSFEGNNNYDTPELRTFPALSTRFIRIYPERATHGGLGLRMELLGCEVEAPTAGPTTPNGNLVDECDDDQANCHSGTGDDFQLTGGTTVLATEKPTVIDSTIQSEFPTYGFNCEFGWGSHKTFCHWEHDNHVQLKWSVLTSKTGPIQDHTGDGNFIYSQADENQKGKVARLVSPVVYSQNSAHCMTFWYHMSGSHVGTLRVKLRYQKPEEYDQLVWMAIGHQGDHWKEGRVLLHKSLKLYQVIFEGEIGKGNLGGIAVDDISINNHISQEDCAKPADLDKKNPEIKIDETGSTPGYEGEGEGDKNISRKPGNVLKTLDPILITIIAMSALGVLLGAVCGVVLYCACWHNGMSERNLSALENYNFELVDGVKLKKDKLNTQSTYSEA

B1: Sema3Cp60 isoform (domain or fragment, UniProt Q99985 21-552)
chain: GSSQPQARVYLTFDELRETKTSEYFSLSHHPLDYRILLMDEDQDRIYVGSKDHILSLNINNISQEALSVFWPASTIKVEECKMAGKDPTHGCGNFVRVIQTFNRTHLYVCGSGAFSPVCTYLNRGRRSEDQVFMIDSKCESGKGRCSFNPNVNTVSVMINEELFSGMYIDFMGTDAAIFRSLTKRNAVRTDQHNSKWLSEPMFVDAHVIPDGTDPNDAKVYFFFKEKLTDNNRSTKQIHSMIARICPNDTGGLRSLVNKWTTFLKARLVCSVTDEDGPETHFDELEDVFLLETDNPRTTLVYGIFTTSSSVFKGSAVCVYHLSDIQTVFNGPFAHKEGPNHQLISYQGRIPYPRPGTCPGGAFTPNMRTTKEFPDDVVTFIRNHPLMYNSIYPIHKRPLIVRIGTDYKYTKIAVDRVNAADGRYHVLFLGTDRGTVQKVVVLPTNNSVSGELILEELEVFKNHAPITTMKISSKKQQLYVSSNEGVSQVSLHRCHIYGTACADCCLARDPYCAWDGHSCSRFYPTGKRRSRR
B2: Sema3CΔ13 isoform (domain or fragment, UniProt Q99985 21-738)
chain: GSSQPQARVYLTFDELRETKTSEYFSLSHHPLDYRILLMDEDQDRIYVGSKDHILSLNINNISQEALSVFWPASTIKVEECKMAGKDPTHGCGNFVRVIQTFNRTHLYVCGSGAFSPVCTYLNRGRRSEDQVFMIDSKCESGKGRCSFNPNVNTVSVMINEELFSGMYIDFMGTDAAIFRSLTKRNAVRTDQHNSKWLSEPMFVDAHVIPDGTDPNDAKVYFFFKEKLTDNNRSTKQIHSMIARICPNDTGGLRSLVNKWTTFLKARLVCSVTDEDGPETHFDELEDVFLLETDNPRTTLVYGIFTTSSSVFKGSAVCVYHLSDIQTVFNGPFAHKEGPNHQLISYQGRIPYPRPGTCPGGAFTPNMRTTKEFPDDVVTFIRNHPLMYNSIYPIHKRPLIVRIGTDYKYTKIAVDRVNAADGRYHVLFLGTDRGTVQKVVVLPTNNSVSGELILEELEVFKNHAPITTMKISSKKQQLYVSSNEGVSQVSLHRCHIYGTACADCCLARDPYCAWDGHSCSRFYPTGKRRSRRQDVRHGNPLTQCRGFNLKAYRNAAEIVQYGVKNNTTFLECAPKSPQASIKWLLQKDKDRRKEVKLNERIIATSQGLLIRSVQGSDQGLYHCIATENSFKQTIAKINFKVLDSEMVAVVTDKWSPWTWASSVRALPFHPKDIMGAFSHSEMQMINQYCKDTRQQHQQGDESQKMRGDYGKLKALINS
B3: Semaphorin-3C (full-length Sema3C) (ligand, UniProt Q99985 21-751)
chain: GSSQPQARVYLTFDELRETKTSEYFSLSHHPLDYRILLMDEDQDRIYVGSKDHILSLNINNISQEALSVFWPASTIKVEECKMAGKDPTHGCGNFVRVIQTFNRTHLYVCGSGAFSPVCTYLNRGRRSEDQVFMIDSKCESGKGRCSFNPNVNTVSVMINEELFSGMYIDFMGTDAAIFRSLTKRNAVRTDQHNSKWLSEPMFVDAHVIPDGTDPNDAKVYFFFKEKLTDNNRSTKQIHSMIARICPNDTGGLRSLVNKWTTFLKARLVCSVTDEDGPETHFDELEDVFLLETDNPRTTLVYGIFTTSSSVFKGSAVCVYHLSDIQTVFNGPFAHKEGPNHQLISYQGRIPYPRPGTCPGGAFTPNMRTTKEFPDDVVTFIRNHPLMYNSIYPIHKRPLIVRIGTDYKYTKIAVDRVNAADGRYHVLFLGTDRGTVQKVVVLPTNNSVSGELILEELEVFKNHAPITTMKISSKKQQLYVSSNEGVSQVSLHRCHIYGTACADCCLARDPYCAWDGHSCSRFYPTGKRRSRRQDVRHGNPLTQCRGFNLKAYRNAAEIVQYGVKNNTTFLECAPKSPQASIKWLLQKDKDRRKEVKLNERIIATSQGLLIRSVQGSDQGLYHCIATENSFKQTIAKINFKVLDSEMVAVVTDKWSPWTWASSVRALPFHPKDIMGAFSHSEMQMINQYCKDTRQQHQQGDESQKMRGDYGKLKALINSRKSRNRRNQLPES

Target: Neuropilin-1 (human (endogenous in HUVEC)) (UniProt O14786)
Test: co-IP; serum-starved HUVECs treated with conditioned medium for 10 min, washed, lysed in 0.5% NP-40; endogenous Nrp-1 immunoprecipitated (2 ug Nrp-1 antibody, Protein-G PLUS-agarose, 4°C overnight); bound Sema3C detected by Western blotting

Row | binding | Binder
1 | no binding | B1
2 | no binding | B2
3 | binds | B3
